Measured values as given in US20210299204A1 (priority 2020, published 2021).
At least one structure is not confirmed: it was looked up by name or label, or the drawing left a doubt.

Test system: Lyme (tick-borne disease)
Set-up: species or system human
Settings: in vivo

Question: For `O=C1C(O)=C([C@H]2CC[C@H](c3ccc(Cl)cc3)CC2)C(=O)c2ccccc21` [MEPRON], which “response of Lyme disease (Herx reaction, change of symptoms)” value is on record?
Answer: no Herx reaction; nothing changed
